Each number is a percent effect as filed.
The controls that fix the scale are not given in the record; negative values are as filed.
Compounds were drawn at random from those tested, without regard to their results.
Two or more numbers in one place are separate tests of the same structure; such repeats can differ widely.

Sequences of proteins named here, by UniProt entry; tags and fusion partners are left off. Residues count along the entry.
UniProt Q8IDJ8, 1-583: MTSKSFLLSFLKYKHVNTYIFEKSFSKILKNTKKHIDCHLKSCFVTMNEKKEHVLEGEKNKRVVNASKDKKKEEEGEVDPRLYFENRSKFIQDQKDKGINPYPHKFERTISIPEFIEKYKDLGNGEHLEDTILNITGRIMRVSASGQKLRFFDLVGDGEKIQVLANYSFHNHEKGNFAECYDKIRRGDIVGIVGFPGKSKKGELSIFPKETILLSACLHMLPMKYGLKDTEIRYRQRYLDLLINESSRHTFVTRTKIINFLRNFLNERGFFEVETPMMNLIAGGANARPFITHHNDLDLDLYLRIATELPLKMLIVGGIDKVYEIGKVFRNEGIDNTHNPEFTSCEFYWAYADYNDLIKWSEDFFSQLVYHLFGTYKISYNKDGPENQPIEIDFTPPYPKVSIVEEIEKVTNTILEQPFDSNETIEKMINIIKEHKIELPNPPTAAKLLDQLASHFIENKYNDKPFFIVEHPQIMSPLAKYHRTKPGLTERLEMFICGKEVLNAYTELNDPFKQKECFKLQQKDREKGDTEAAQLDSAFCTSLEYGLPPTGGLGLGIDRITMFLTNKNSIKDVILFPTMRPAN
UniProt I6X8D2, whole entry: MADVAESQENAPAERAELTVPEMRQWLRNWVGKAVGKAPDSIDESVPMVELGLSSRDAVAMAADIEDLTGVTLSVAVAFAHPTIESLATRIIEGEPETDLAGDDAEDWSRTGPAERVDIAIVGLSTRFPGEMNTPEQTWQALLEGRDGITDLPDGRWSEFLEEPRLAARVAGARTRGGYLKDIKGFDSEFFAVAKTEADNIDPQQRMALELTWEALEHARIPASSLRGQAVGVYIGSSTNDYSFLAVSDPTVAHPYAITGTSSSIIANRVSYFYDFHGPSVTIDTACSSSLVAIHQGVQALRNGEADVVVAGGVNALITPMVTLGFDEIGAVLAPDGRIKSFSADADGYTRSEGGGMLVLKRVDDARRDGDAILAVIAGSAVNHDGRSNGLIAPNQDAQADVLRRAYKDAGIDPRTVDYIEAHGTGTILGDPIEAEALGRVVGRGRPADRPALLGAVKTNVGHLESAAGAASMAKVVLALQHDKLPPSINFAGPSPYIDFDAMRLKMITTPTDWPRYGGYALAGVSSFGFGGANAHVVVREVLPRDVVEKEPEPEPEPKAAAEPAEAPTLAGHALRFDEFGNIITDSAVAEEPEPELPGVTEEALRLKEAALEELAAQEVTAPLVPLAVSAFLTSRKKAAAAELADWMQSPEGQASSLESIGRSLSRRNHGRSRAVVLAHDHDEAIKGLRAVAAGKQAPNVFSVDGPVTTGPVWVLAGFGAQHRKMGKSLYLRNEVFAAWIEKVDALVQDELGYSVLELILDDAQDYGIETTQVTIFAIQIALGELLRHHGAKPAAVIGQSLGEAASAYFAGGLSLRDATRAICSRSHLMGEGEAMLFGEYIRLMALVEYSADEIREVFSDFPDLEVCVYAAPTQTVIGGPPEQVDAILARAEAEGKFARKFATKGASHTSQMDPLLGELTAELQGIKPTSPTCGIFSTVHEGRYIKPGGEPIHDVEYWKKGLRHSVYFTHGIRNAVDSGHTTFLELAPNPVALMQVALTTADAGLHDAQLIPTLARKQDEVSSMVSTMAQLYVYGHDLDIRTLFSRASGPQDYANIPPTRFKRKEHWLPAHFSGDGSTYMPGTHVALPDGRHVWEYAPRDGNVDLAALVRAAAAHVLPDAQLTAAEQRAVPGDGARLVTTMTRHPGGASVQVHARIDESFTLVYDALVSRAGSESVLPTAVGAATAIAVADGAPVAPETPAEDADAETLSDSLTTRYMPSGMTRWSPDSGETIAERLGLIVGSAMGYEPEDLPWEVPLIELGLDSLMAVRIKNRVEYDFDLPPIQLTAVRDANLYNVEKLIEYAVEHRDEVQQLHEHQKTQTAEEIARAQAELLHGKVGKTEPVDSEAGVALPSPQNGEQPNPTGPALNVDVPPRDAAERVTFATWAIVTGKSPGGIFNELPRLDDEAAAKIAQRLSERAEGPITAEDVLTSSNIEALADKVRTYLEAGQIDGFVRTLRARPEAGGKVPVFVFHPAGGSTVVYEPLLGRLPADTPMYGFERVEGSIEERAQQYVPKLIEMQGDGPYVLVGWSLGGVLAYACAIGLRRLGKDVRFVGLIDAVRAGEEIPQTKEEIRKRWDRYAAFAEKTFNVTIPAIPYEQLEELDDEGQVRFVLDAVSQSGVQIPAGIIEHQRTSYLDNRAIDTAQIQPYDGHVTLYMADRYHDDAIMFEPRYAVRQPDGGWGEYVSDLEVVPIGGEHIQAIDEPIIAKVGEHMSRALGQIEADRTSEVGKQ
UniProt P9WNZ1, whole entry: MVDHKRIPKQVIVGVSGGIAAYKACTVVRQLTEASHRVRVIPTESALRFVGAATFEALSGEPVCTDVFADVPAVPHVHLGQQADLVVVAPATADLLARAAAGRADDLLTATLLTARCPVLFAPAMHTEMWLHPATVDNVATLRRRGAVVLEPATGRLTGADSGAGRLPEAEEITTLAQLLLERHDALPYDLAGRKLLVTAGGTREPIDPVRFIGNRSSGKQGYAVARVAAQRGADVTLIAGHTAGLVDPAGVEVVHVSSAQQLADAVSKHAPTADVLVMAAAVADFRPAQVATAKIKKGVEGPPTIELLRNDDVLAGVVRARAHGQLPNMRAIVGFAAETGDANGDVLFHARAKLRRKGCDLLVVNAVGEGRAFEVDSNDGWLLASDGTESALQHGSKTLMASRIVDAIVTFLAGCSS
UniProt Q4DA54, 1-478: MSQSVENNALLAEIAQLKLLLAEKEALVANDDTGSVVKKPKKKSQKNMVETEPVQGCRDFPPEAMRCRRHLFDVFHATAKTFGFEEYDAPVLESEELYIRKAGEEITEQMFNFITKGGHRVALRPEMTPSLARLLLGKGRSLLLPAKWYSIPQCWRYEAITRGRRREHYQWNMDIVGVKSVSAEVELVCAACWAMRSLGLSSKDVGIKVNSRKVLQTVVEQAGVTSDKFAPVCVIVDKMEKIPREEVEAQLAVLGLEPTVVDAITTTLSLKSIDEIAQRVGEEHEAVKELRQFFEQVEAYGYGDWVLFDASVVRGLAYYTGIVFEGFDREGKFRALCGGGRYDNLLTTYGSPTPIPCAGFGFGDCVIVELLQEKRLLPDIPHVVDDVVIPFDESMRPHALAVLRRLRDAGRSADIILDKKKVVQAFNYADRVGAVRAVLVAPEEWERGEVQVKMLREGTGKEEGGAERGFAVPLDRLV
UniProt P9WFT3, whole entry: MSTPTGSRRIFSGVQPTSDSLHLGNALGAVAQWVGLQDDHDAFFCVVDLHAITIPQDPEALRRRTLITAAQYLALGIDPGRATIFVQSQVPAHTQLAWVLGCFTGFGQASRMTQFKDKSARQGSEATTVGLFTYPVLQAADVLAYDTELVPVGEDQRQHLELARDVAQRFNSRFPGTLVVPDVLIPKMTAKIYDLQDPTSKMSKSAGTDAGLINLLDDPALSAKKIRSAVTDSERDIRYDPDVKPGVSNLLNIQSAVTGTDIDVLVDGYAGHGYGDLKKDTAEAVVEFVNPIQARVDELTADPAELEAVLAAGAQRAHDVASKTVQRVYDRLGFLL
UniProt P9WPC5, whole entry: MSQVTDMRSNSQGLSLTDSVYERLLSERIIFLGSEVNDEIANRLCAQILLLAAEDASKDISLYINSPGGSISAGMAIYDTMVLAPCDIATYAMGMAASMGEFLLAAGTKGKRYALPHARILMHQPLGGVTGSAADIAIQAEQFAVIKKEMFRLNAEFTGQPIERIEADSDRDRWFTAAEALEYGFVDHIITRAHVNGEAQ
UniProt P9WPC3, whole entry partner: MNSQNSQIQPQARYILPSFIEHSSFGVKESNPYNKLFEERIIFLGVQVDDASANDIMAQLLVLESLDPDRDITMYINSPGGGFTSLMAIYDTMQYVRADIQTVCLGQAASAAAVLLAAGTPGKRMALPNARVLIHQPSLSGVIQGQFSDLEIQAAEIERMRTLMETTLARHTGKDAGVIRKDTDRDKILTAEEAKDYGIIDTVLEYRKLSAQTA

PfKRS1: 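Lysine-tRNA ligase, Plasmodium falciparum 3D7 (UniProt Q8IDJ8). Enzyme assay of the cytosolic lysyl-tRNA synthetase in 384-well plates, read by luminescence. Compounds at 30 µM. Direction is inferred from only a few compounds that gave an IC50; most scored high, so higher reads as stronger inhibition. About 69,000 compounds were tested under these conditions; 0.071% (about 49) showed 50% or more at least once.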
Pks13 thioesterase: 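Enzyme assay of the thioesterase domain of polyketide synthase 13; the read-out is not stated. Target: Polyketide synthase Pks13, Mycobacterium tuberculosis (UniProt I6X8D2). Compounds at 30 µM. Higher reads as stronger inhibition (inferred from which compounds were picked for retests). Size under these conditions: about 67,000 compounds, about 300 of them at 50% or above in at least one test.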
CoaBC: 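Coenzyme A biosynthesis protein CoaBC, Mycobacterium tuberculosis (UniProt P9WNZ1). Enzyme assay of CoaBC with a phosphate dye (Biomol Green) read at 650 nm. Concentration: 30 µM. Higher reads as stronger inhibition, judged from the few compounds that gave an IC50. Most strong results did not repeat in a second test. Size under these conditions: about 67,000 compounds, about 40 of them at 50% or above in at least one test.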
TcHisRS: 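Histidine-tRNA ligase, Trypanosoma cruzi CL Brener (UniProt Q4DA54). Enzyme assay of histidyl-tRNA synthetase; the read-out is not stated. Compounds at 30 µM. The record gives no direction; compounds that gave an IC50 in retests scored well above the rest, so higher reads as stronger inhibition. Of about 69,000 compounds tested this way, about 31 (0.045%) reached 50% or more in at least one test.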
MtTrpRS: 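Enzyme assay of tryptophanyl-tRNA synthetase; the read-out is not stated. Target: Tryptophan-tRNA ligase, Mycobacterium tuberculosis (UniProt P9WFT3). Concentration: 10 µM. Higher most likely means stronger inhibition; the record gives no direction and few retests gave an IC50. Size under these conditions: about 65,000 compounds, about 64 of them at 50% or above in at least one test.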
ClpP1P2: 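ClpP1P2, Mycobacterium tuberculosis (UniProt P9WPC5 and UniProt P9WPC3). Protease assay of ClpP1P2, read by the AMC dye that it sets free. Concentration: 50 µM. Direction is inferred from only a few compounds that gave an IC50; most scored high, so higher reads as stronger inhibition. Most other retested compounds had strongly negative values. About 69,000 compounds were tested under these conditions; 0.015% (about 10) showed 50% or more at least once.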

* CCCc1cncnc1N1CCC(NCc2cc3ccccc3[nH]2)CC1 : PfKRS1: -1.399%; Pks13 thioesterase: -31.87%; CoaBC: -12.9%; TcHisRS: 16.26%; MtTrpRS: -2.102%; ClpP1P2: -14.62%
* O=C(NCCn1cccc1)C1CCCOC1 (stereo not drawn) : PfKRS1: 2.454%; Pks13 thioesterase: -14.99%; CoaBC: 1.489%; TcHisRS: 15.61%; MtTrpRS: 3.744%; ClpP1P2: -2.331%
* N#Cc1ccc(F)c(CNC(=O)NCCC(=O)NC2CCCC2)c1 : PfKRS1: -0.8938%; Pks13 thioesterase: -19.32%; CoaBC: 6.612%; TcHisRS: 2.89%; MtTrpRS: -1.149%; ClpP1P2: 4.619%
* COC(=O)c1ccc(NC(=O)CNCc2ccco2)cc1 : PfKRS1: 7.079%; Pks13 thioesterase: 12.63%; CoaBC: 3.354%; TcHisRS: -4.831%; MtTrpRS: 0.7236%; ClpP1P2: -29.96%
* O=C(NCCN1CCOCC1)C1=NOC2(CCN(Cc3nccs3)C2)C1 (stereo not drawn) : PfKRS1: 6.496%; Pks13 thioesterase: 0.7935%; CoaBC: 3.361%; TcHisRS: 4.132%; MtTrpRS: 0.5231%; ClpP1P2: 6.75%
* Cn1nc(C(=O)NC2CCCCC2)cc1NC(=O)C1CC1 : PfKRS1: 3.015%; Pks13 thioesterase: -20.56%; CoaBC: 6.925%; TcHisRS: 6.878%; MtTrpRS: -2.676%; ClpP1P2: 2.828%
* CS(=O)(=O)c1nnc(NC(=O)CCc2ccc(Cl)s2)[nH]1 : PfKRS1: 1.831%; Pks13 thioesterase: -15.3%; CoaBC: 8.448%; TcHisRS: 6.897%; MtTrpRS: 7.158%; ClpP1P2: 4.45%
* Cc1cc(N(C)CCn2ccnc2C)n2nccc2n1 : PfKRS1: 0.4027%; Pks13 thioesterase: -14.72%; CoaBC: 16.67%; TcHisRS: -4.712%; MtTrpRS: -0.7042%; ClpP1P2: 0.2616%
* O=c1n(CC2COCCO2)nc(CC2CCNCC2)n1-c1ccccc1 (stereo not drawn) : PfKRS1: 0.4475%; Pks13 thioesterase: -9.62%; CoaBC: 14.81% and 21.36%; TcHisRS: -4.865%; MtTrpRS: 2.974%; ClpP1P2: -2.405%
* CN1CC(=O)N(c2ccsc2)CC12CCN(Cc1nccn1C)C2 (stereo not drawn) : PfKRS1: -0.4673%; Pks13 thioesterase: -15.26%; CoaBC: -5.263%; TcHisRS: 5.376%; MtTrpRS: 5.498%; ClpP1P2: -2.656%
* CN(C)CCn1ccnc1C1CCN(C(=O)CCc2ccncc2)CC1 : PfKRS1: 4.912%; Pks13 thioesterase: -3.51%; CoaBC: 0.3745%; TcHisRS: 2.041%; MtTrpRS: 1.407%; ClpP1P2: -11.07%
* CC(=O)NCC(=O)N1Cc2nccn2CC(CN2CCCC2=O)C1 (stereo not drawn) : PfKRS1: -0.2554%; Pks13 thioesterase: -12.68%; CoaBC: 2.03%; TcHisRS: 8.867%; MtTrpRS: -9.465%; ClpP1P2: -0.475%
* N#Cc1ccc(F)c(CN(CC(=O)N2CCCC2)CC2CCCO2)c1 (stereo not drawn) : PfKRS1: 3.547%; Pks13 thioesterase: -23.98%; CoaBC: 10%; TcHisRS: 7.027%; MtTrpRS: -0.2974%; ClpP1P2: -2.952%
* Cc1nc(C#N)c(N2CCC(c3nc(-c4ccc(F)cc4)no3)CC2)o1 : PfKRS1: -6.729%; Pks13 thioesterase: 10.36%; CoaBC: -2.133%; TcHisRS: -0.4878%; MtTrpRS: 0.8675%; ClpP1P2: -12.39%
* CC(c1ccco1)N(C)Cc1nc2c(cnn2C)c(=O)[nH]1 (stereo not drawn) : PfKRS1: 7.897%; CoaBC: 2.361%; TcHisRS: -1.916%; MtTrpRS: -0.2916%; ClpP1P2: 10.6%
* CC(C)[C@]1(O)CN(C(=O)COCC(N)=O)C[C@H]1C : PfKRS1: -1.291%; Pks13 thioesterase: -15%; CoaBC: 3.704%; TcHisRS: 1.01%; MtTrpRS: 0.9032%; ClpP1P2: 0.1536%
* CCSc1cc(C(=O)NCC(C)(C)N(C)C)ccn1 : PfKRS1: -0.9267%; Pks13 thioesterase: -2.988%; CoaBC: 0.8963%; TcHisRS: -0.6135%; MtTrpRS: 2.442%; ClpP1P2: -8.082%

Once more, the final 2:

{"smiles": "CC(C)[C@]1(O)CN(C(=O)COCC(N)=O)C[C@H]1C", "PfKRS1": -1.291, "Pks13 thioesterase": -15, "CoaBC": 3.704, "TcHisRS": 1.01, "MtTrpRS": 0.9032, "ClpP1P2": 0.1536}
{"smiles": "CCSc1cc(C(=O)NCC(C)(C)N(C)C)ccn1", "PfKRS1": -0.9267, "Pks13 thioesterase": -2.988, "CoaBC": 0.8963, "TcHisRS": -0.6135, "MtTrpRS": 2.442, "ClpP1P2": -8.082}

From ChEMBL document CHEMBL3988442, “University of Dundee, Small-Polar-MMV Screening Library” (2021).